These results are taken from the supplement of paper PMC10849652.

By UniProt entry, the sequences of proteins in these tests, tags left out. Where a name states a change or a piece, a line headed by the entry shows the natural chain unless it says otherwise.
UniProt Q9NRY4: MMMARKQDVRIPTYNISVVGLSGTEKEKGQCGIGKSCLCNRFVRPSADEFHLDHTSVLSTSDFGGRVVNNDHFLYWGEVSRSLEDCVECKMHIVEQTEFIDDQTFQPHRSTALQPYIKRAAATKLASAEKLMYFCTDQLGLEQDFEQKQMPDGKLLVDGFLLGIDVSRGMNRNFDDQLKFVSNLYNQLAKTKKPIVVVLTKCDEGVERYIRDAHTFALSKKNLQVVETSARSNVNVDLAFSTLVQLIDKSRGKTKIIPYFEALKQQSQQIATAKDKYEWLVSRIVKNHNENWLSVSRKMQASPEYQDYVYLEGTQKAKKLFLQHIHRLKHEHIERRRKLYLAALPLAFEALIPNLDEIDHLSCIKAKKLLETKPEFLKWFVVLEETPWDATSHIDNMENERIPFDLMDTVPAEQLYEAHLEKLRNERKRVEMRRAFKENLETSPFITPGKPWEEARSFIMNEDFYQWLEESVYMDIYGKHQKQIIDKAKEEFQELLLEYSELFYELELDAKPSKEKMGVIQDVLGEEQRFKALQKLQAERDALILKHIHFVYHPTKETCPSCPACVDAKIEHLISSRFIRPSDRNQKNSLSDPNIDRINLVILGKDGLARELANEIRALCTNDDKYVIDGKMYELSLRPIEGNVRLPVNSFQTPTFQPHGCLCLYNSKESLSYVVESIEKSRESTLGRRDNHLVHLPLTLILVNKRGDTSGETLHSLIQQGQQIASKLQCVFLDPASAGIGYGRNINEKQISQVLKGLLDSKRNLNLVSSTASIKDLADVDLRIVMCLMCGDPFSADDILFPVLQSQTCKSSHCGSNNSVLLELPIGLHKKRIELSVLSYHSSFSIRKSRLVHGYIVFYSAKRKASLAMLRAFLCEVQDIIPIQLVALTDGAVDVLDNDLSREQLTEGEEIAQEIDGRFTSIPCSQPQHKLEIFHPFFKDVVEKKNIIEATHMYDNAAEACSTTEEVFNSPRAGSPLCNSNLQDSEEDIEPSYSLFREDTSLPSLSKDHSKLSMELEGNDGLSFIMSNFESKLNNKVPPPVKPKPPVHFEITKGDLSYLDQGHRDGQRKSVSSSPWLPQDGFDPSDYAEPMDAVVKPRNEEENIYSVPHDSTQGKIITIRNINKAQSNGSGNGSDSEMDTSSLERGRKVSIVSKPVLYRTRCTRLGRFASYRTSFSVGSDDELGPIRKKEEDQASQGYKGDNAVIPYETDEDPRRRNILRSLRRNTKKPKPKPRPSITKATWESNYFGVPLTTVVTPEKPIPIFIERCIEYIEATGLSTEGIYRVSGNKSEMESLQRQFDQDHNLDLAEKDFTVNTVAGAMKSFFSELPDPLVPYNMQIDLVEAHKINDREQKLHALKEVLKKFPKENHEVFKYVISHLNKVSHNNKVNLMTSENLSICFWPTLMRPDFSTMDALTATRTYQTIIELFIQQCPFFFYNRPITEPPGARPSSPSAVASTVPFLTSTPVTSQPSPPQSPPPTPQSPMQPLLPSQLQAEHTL
UniProt Q8N392: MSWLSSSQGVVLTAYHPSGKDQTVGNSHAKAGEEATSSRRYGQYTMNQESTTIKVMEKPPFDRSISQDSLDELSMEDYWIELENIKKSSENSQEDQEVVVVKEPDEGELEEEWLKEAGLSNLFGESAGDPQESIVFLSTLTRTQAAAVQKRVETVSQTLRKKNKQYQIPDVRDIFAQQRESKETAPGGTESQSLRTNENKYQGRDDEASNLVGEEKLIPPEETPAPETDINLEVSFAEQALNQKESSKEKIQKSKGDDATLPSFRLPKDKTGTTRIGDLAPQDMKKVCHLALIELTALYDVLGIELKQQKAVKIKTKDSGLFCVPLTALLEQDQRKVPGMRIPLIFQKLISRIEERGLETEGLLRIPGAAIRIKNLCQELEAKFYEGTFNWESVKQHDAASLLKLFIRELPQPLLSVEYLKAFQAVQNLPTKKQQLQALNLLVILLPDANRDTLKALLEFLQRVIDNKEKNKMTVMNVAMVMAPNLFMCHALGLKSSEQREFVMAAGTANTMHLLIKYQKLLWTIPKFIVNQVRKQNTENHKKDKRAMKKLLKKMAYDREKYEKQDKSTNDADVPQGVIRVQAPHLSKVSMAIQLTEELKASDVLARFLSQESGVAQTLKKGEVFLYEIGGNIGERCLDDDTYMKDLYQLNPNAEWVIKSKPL
UniProt Q68EM7: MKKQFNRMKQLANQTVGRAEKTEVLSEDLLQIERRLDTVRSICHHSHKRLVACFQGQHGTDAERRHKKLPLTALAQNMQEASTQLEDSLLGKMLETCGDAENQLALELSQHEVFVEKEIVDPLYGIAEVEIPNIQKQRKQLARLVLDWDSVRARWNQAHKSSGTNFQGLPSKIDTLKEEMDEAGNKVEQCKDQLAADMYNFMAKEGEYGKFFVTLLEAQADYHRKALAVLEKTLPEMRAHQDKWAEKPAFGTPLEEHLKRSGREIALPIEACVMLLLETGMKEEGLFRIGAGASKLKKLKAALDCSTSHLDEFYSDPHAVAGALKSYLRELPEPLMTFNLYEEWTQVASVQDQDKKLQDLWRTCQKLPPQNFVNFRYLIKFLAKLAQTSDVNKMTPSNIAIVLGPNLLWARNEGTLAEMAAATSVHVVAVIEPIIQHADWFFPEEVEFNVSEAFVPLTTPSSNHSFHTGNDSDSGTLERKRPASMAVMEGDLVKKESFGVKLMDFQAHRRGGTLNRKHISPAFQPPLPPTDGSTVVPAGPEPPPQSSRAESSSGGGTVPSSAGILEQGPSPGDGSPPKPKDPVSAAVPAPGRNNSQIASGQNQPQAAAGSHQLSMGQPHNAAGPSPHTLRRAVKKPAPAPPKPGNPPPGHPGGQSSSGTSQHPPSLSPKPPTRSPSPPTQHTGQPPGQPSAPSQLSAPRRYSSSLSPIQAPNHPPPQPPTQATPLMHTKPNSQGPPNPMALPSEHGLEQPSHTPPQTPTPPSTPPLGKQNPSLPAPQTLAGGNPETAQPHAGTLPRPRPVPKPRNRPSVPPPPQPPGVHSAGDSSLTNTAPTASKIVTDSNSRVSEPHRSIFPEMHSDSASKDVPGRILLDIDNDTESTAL
UniProt Q13795: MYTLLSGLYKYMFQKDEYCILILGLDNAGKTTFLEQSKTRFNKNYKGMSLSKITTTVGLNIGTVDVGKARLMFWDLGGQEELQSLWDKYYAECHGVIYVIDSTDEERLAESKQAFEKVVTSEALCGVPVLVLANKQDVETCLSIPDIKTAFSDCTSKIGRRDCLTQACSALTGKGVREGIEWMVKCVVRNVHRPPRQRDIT
UniProt Q4KMQ2: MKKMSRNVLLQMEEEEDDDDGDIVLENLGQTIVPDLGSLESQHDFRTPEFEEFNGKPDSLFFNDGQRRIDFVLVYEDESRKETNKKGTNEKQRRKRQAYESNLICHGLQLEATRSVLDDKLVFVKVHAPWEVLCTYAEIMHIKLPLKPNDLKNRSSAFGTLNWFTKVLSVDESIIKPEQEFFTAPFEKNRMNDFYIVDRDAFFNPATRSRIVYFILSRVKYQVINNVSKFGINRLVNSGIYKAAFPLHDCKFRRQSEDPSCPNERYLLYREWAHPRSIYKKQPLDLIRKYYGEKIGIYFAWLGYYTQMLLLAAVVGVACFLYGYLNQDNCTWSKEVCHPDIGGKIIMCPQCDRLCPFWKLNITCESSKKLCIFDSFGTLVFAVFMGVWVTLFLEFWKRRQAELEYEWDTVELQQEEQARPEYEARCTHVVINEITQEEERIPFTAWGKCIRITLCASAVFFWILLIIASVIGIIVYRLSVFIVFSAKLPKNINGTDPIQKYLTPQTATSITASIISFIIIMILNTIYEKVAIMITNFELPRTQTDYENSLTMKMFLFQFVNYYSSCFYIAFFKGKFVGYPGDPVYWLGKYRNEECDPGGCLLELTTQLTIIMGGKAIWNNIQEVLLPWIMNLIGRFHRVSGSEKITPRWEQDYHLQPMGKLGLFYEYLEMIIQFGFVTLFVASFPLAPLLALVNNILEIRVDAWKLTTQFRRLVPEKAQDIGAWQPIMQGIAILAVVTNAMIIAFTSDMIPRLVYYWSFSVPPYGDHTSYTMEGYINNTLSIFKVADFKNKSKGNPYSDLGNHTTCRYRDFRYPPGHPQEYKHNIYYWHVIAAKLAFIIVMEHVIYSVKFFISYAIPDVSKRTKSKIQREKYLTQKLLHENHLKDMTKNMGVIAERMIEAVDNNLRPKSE
UniProt P20073: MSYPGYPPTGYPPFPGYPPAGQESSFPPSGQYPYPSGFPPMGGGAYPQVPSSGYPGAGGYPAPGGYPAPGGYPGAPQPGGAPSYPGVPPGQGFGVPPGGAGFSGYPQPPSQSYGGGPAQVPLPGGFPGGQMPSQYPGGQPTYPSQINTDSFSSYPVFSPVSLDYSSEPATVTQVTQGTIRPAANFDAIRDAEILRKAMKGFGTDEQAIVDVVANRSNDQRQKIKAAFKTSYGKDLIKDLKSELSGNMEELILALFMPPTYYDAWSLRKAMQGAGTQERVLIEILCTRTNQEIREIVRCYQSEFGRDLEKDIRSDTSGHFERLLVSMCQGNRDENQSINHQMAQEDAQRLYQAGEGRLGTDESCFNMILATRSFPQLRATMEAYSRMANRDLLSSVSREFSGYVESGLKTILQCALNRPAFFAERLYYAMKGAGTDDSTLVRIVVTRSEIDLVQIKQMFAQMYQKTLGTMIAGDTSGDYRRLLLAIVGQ
UniProt Q9NZN5: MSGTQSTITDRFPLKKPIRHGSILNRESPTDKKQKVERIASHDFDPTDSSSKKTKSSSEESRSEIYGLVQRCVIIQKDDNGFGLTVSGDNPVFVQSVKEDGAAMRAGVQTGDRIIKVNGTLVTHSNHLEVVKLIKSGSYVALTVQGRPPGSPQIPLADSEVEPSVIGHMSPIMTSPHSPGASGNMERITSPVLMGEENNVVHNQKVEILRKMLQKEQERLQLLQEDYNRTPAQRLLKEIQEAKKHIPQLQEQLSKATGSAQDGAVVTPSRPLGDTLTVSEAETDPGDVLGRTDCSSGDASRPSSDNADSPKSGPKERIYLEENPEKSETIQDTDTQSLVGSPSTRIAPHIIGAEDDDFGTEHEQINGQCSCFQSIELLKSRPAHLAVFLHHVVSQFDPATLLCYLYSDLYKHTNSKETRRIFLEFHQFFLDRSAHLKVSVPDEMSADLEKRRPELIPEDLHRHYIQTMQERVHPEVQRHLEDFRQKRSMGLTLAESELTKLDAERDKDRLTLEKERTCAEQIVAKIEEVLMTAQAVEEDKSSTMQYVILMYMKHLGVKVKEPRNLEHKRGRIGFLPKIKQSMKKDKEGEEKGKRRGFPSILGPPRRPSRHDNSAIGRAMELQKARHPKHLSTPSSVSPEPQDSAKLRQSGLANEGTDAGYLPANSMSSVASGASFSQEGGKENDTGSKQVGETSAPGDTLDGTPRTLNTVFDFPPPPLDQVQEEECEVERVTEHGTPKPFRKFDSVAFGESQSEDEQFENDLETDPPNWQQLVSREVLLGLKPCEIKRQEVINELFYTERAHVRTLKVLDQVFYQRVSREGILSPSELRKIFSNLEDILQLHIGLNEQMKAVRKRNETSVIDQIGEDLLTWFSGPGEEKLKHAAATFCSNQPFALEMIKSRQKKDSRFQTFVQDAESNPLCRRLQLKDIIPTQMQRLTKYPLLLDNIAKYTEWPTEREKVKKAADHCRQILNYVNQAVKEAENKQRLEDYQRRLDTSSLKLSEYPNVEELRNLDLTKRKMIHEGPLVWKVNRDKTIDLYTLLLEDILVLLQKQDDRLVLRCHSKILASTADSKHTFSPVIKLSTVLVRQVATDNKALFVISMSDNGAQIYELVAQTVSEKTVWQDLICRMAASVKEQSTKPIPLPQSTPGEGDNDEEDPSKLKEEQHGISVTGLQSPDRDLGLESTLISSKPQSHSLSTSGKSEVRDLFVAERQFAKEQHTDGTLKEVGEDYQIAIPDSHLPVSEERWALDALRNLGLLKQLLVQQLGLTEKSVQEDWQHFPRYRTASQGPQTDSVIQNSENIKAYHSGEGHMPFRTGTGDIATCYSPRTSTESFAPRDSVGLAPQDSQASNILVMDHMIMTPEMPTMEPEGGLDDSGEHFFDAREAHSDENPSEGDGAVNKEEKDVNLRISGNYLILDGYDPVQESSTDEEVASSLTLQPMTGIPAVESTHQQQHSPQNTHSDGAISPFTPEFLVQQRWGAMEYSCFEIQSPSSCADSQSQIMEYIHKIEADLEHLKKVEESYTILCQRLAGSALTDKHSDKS
UniProt P78540: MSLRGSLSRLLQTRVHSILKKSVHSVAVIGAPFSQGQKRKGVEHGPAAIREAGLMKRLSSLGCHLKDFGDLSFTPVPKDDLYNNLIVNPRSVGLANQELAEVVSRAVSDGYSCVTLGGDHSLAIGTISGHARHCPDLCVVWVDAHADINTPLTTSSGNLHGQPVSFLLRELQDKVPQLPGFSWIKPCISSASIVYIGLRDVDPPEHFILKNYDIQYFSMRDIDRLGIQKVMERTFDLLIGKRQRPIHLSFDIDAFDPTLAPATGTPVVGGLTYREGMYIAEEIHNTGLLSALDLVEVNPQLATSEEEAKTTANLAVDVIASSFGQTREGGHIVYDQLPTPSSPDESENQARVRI

The list shows a part of the results.

Compound in this assay: C/C(=N\NC(=O)C1=CC(=CC=C1)S(=O)(=O)N2CCOCC2)/C3=C(C=CC(=C3)Cl)O
Kind of assay: log2 fold change, soluble protein after heating vs DMSO (PISA); higher = thermal stabilisation; K562 cells, 10 uM, 30 min; active = over 0.2 and 3.5 SD of the protein, either way, in both replicates (recomputed). The essentials: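 Aliquots of K562 cells (2×10^6 cells/mL) treated with 10 μM compound for 30 min were heated for 3 min over 48°C-58°C. After pooling and extraction in PBS with 0.5% NP-40 at 4°C, soluble protein from a 21,000xg, 90 min spin was quantified by TMTpro 16plex LC-MS/MS with channel sums equalised. Thermal stability is expressed against control samples, from duplicates, as a log2 fold change.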
Take ARHGAP35 (UniProt Q9NRY4): the log2 fold change is inactive: 0.018.
As to ANKH (UniProt Q9HCJ1), the log2 fold change was inactive: -0.306.
The figure for APOL2 (UniProt J3KQL8) is inactive: 0.157.
The figure for ARHGAP18 (UniProt Q8N392) is inactive: 0.032.
The figure for ARHGAP17 (UniProt Q68EM7) is inactive: -0.07.
Consider AP1B1 (UniProt Q10567), for which the log2 fold change is inactive: 0.062.
The figure for AP4B1 (UniProt Q9Y6B7) is inactive: 0.289.
Regarding ARFRP1 (UniProt Q13795), the log2 fold change is inactive: -0.017.
The figure for APOBEC3C (UniProt Q9NRW3) is inactive: -0.155; for APTX (UniProt Q7Z2E3) it is inactive: -0.025; for ANO6 isoform 2 (UniProt Q4KMQ2) it is inactive: -0.012.
The figure for ANK2 (UniProt Q01484) is inactive: -0.173; for ANXA7 (UniProt P20073) it is inactive: 0.08.
Take AQR (UniProt O60306): the log2 fold change is inactive: -0.017.
The figure for ANPEP (UniProt P15144) is inactive: -0.068; for ARHGAP25 isoform 4 (UniProt P42331) it is inactive: 0.165; for AP1M1 (UniProt Q9BXS5) it is inactive: 0.015.
The figure for ARHGEF12 (UniProt Q9NZN5) is inactive: 0.101; for ARG2 (UniProt P78540) it is inactive: 0.025.
For APC (UniProt P25054), the log2 fold change is inactive: -0.01.
The figure for APPL1 (UniProt Q9UKG1) is inactive: 0.162; for ANTXR2 isoform 4 (UniProt P58335) it is inactive: 0.001; for ANAPC7 (UniProt Q9UJX3) it is inactive: 0.039.
